Experimental data taken from US12509421B2, “Preparation and application of deuterated 4-phenyl-4-piperidinols” (priority 2022, dated 2025).
Some entries share one result that the patent states for a list of compounds. For at least one compound, name, drawing or mass did not settle the structure.

Protein sequences, listed by entry. Tags and fused reporters are not part of them.
UniProt P10635, whole entry: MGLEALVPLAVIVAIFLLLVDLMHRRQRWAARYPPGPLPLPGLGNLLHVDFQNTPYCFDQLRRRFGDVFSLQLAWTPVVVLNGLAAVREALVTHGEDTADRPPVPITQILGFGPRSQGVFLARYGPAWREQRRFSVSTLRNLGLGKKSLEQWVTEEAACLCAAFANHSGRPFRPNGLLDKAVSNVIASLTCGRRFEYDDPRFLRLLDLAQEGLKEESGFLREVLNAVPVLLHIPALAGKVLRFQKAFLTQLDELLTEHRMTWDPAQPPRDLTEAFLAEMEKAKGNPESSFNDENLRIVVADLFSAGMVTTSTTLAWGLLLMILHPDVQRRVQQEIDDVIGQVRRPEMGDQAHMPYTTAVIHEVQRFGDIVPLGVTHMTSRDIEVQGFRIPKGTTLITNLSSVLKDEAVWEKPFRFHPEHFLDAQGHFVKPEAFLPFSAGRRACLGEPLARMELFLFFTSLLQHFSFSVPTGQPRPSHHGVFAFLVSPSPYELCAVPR

Target: CYP 2D6 (Homo sapiens, UniProt P10635)
Assay: Inhibition of cytochrome P450 enzyme in human liver microsomes, CYP 2D6
Conditions: class by IC50

Row | Compound | CYP 2D6 inhibition class
1 | COc1cccc([C@]2(O)CCN(S(=O)(=O)Cc3ccccc3)C[C@H]2CN(C)C)c1.Cl [Example 20 of CN201911076305.X, reference compound] | moderate (moderate inhibitory effects on CYP 2D6 (1 μM/L<IC50<10 M/L))
2 | COc1ccsc1CNCC[C@@]1(c2ccccn2)CCOC2(CCCC2)C1 [TRV-130, reference compound] | moderate (moderate inhibitory effects on CYP 2D6 (1 μM/L<IC50<10 M/L))
